The record followed here is paper PMC8718266.

By UniProt entry, the sequences of proteins in these tests, tags left out.
UniProt Q60843: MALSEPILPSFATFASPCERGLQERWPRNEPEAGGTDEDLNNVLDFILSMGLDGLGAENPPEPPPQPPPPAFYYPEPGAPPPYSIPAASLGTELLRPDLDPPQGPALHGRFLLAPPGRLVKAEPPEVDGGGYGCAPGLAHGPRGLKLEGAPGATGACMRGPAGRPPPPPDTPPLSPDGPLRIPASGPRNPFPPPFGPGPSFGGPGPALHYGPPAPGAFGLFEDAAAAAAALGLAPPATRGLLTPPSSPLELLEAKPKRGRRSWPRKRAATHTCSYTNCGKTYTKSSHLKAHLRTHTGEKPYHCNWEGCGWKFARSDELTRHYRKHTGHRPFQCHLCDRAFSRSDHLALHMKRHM
UniProt Q8VBV4: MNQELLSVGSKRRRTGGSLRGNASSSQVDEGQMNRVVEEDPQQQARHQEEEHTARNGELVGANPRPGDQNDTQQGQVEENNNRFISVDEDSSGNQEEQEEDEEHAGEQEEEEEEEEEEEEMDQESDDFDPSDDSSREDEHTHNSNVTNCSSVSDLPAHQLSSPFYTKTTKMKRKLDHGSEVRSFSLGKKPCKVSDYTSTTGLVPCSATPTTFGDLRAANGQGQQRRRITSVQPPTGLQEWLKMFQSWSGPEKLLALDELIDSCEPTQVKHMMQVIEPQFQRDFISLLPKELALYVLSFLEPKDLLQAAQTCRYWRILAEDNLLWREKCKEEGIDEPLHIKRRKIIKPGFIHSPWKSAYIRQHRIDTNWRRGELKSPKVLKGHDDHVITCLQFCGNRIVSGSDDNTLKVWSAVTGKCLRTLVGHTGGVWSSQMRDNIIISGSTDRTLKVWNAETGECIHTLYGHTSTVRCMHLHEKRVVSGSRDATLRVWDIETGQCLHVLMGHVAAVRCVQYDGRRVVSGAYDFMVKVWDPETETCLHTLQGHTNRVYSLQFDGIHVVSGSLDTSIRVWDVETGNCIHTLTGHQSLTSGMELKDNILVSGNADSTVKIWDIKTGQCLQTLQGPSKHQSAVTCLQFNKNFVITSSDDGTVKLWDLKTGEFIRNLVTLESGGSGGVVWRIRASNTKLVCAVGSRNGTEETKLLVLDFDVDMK

Results are given in words; binding and its absence hold for the method and conditions named. In cells and extracts the contact can be indirect. Some binding calls cover weakened binding; strength is not graded here.

The target in this assay is 3xFLAG-KLF2 wild-type (UniProt Q60843). The experiment in a line: co-IP; mESCs transfected with HA-FBW7 and empty vector or the indicated 3xFLAG-KLF2 construct; FLAG IP; HA-FBW7 detected by immunoblotting. On the technique in general: Immunoblotting shows a protein as a band on a membrane.

Take HA-FBW7 (from UniProt Q8VBV4 1-710): the binding result is recorded as “binds”.
